The results in this text go back to PubChem BioAssay (NCATS).

By UniProt entry, the sequences of proteins in these tests, tags left out. Where a name states a change or a piece, a line headed by the entry shows the natural chain unless it says otherwise.
UniProt P50135: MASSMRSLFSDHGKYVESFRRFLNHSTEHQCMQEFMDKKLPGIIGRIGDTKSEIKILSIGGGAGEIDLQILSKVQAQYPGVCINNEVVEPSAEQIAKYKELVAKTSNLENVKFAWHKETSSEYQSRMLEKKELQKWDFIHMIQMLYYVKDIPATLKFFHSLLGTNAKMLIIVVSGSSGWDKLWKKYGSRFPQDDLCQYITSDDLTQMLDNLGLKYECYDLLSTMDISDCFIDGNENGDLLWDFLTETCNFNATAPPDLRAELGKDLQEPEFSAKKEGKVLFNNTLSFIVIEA

Experiment [1] is described as follows: Validation of Assay for Modulators of Lamin A Splicing (AID 1459). To be noted: Lamin A splicing dual RFP/GFP fluorescence reporter, ratio. In outline:
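Readout: ratio of GFP (500-530 nm) to RFP (575-640 nm) total object intensity by 488 nm laser-scanning cytometry after 48 hrs. Cells were HeLa S3 clones carrying lamin A-EGFP minigene plus DsRed2 viability reporter; vehicle 0.5% DMSO final.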

Experiment [2] in a line: qHTS Assay for Lipid Storage Modulators (AID 1519). To be noted: Drosophila S3 cells, BODIPY lipid droplet/cell ratio, laser cytometry, cells loaded with oleic acid. Summed up:
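Cells seeded at 5,000 per well were treated with compounds over a concentration series and loaded with oleic acid (400 uM, as added). Lipid droplet fluorescence (488 nm excitation, 500-530 nm channel) was read by laser-scanning cytometry and normalized to 20 uM Triacsin C.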

The nature of experiment [3]: qHTS Assay for Modulators of Human Peripheral Myelin Protein 22 (PMP22) Expression/Activity (AID 1967). To be noted: Cell-based PMP22 reporter, dual-color luciferase ratio. In outline:
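Mouse MSC80 Schwann line, Pmp22 promoter–CBG68 reporter, EF-alpha–CBR internal control. 24h compound exposure, 37 °C/5% CO2, DMEM + 10% FBS. Readout: corrected green/red luminescence ratio, normalized to untreated cells; concentration-response curves fitted and classified.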
In general terms: In qHTS, concentration-response curves come from the screen itself.

Experiment [4] deals with Histamine N-methyltransferase (Homo sapiens) (UniProt P50135). Kind of experiment: Confirmatory Screen for Target Class Profiling of Small Molecule Inhibitors of Methyltransferases (AID 1745852). To be noted: MTase-Glo luminescence, SAH detection, recombinant enzyme; measured here: HNMT inhibition potency.
A short description of experiment [5]: qHTS Validation Assay to Find Inhibitors of Chronic Active B-Cell Receptor Signaling (AID 485345). As to conditions: ABC-DLBCL cells, chronic BCR signaling reporter. In outline: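 TMD8 ABC-DLBCL cells with dox-inducible green luciferase–IκBα fusion and red native luciferase; compounds 46 uM–3 nM, 4 h at 37C with doxycycline in 0.5% FBS IMDM. Green/red ratio normalized to basal and 10 uM MG-132.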

Experiment [6] can be described thus: Nrf2 qHTS screen for inhibitors: Validation (AID 493153). To be noted: A549 ARE-Fluc reporter, 18-24 h; AC50: CellTiter-Fluor fluorescence read, measured here: cytotoxicity CellTiter-Fluor AC50; viability change: measured here: cytotoxicity max response. In outline:
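Luminescence from an ARE-firefly luciferase reporter in A549 cells gives Nrf2 inhibition; an earlier CellTiter-Fluor fluorescent read flags cytotoxicity. Cells in 5% FBS OPTI-MEM received compound dilution series for 18-24 h at 37°C.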

The nature of experiment [7]: S16 Schwann cell PMP22 intronic element beta-lactamase assay (AID 624044). To be noted: S16 rat Schwann cells, PMP22 element beta-lactamase FRET, 24 h; measured here: 460 nm blue channel. In outline:
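Rat S16 Schwann cells with beta-Lac driven by a PMP22 intronic element, compound-treated 24 h at 37 °C. LiveBLAzer FRET B/G read: 460 nm normalized to potassium clavulanate vs DMSO; 535 nm FRET as viability; concentration-effect curves classified.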

Experiment [8] can be described thus: A High-Content qHTS Against Drug Library for the Identification of Small Molecules that Inhibit DYT1 Early Onset Primary Dystonia-Associated Cell Pathology (AID 1645839). To be noted: HEK293 Flp-In EGFP-delE TorsinA, punctate imaging, 48 h; measured here: cell count cytotoxicity. Summed up:
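Readout: %pathology, the punctate EGFP-TorsinA distribution from imaging, as the primary channel and cell count as the toxicity counterscreen. HEK293 Flp-In cells expressing delE TorsinA were induced with tetracycline and treated with compound for 48 h.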

A short description of experiment [9]: qHTS drug screen for cell cycle checkpoint inhibitors in PARPi-resistant BRCA-mutant ovarian cancer cell lines. (AID 1963452). To be noted: PEO1/OlaR viability, CellTiter-Glo luminescence, 96 h. In outline: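 PEO1, PEO4 and PEO1/OlaR ovarian cancer cells, 600 per well, exposed 96 h at 37C to a dilution series. Viability read by CellTiter-Glo luminescence, normalized to DMSO and empty wells; activity summarized as Z-AUC.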

A short description of experiment [10]: qHTS for identification of novel therapeutic agents for treatment of microphthalmiaassociated transcription factor (MiT) renal cell carcinoma (RCC) (AID 1963991). To be noted: CellTiter-Glo, 48 h; for z-score: stronger effect = lower value. In outline:
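Viability of three TFE3-fusion renal carcinoma lines measured by CellTiter-Glo after 48 h treatment with each of 1912 compounds at 11 concentrations. Responses scaled between DMSO (100%) and empty wells (0%) before curve fitting.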

The mark [11] stands for this setting: measured here: cell count channel max response.
The mark [12] stands for this setting: measured here: cell number channel AC50.
The mark [13] stands for this setting: measured here: lipid (BODIPY) channel AC50.
[14] abbreviates: measured here: lipid channel max response.
Where [15] appears, read: measured here: red reporter channel AC50, EF-alpha promoter control reporter in MSC80 mouse Schwann cells.
The mark [16] stands for this setting: measured here: green reporter channel AC50, mouse Pmp22 promoter in mouse Schwann cells.
Setting [17] is: measured here: CBG/CBR ratio read-out.
Setting [18] is: TFE3-RCC UOK109 viability, measured here: UOK109 Z-AUC.
Setting [19] is: TFE3-RCC viability, measured here: UOK124 Z-AUC.
The mark [20] stands for this setting: TFE3-RCC viability, measured here: UOK124 cell viability.
Where [21] appears, read: TFE3-RCC viability, measured here: UOK145 Z-AUC.
[22] abbreviates: TFE3-RCC viability, measured here: UOK145 cell viability.
The mark [23] stands for this setting: measured here: CBR control luciferase (viability counter).

Several values for one entry are separate records, joined by “and”; a condition that tells them apart may be missing. Equal entries are not always repeated. This is one part of the list. Shown are side measurements of this screen, not its main read-out; they come without a call. For some of these results: Compounds called inactive in the main read-out are mostly missing here. Words in brackets tell the shape of the fitted curve; partial curves, single points and poor fits give uncertain potencies.

As to `NC(=O)CI`, the AC50 was 6.31 µM [falling, full curve] in [1] (measured here: GFP channel); 5.62 µM [falling, full curve] in [1] (measured here: RFP channel); 15.8 µM [falling, single point] in [2] (setting [12]); 15.8 µM [falling, single point] in [2] (setting [13]); 84.9 µM [falling, single point] in experiment [3] (setting [15]). For the same molecule, the max response in [2] (setting [11]) is -22.1%; in experiment [2] (setting [14]) it was -22.5%. Further, the IC50 in experiment [4] was 21.7 µM [falling, partial curve, poor fit].
As to `Fc1ccc(C(OCCN2CCN(CCCc3ccccc3)CC2)c2ccc(F)cc2)cc1`, the AC50 in [1] (measured here: GFP channel) was 10 µM [falling, partial curve]; in experiment [1] (measured here: RFP channel), 17.8 µM [falling, partial curve]; in experiment [2] (setting [12]), 44.7 µM [falling, partial curve, poor fit]; in experiment [2] (setting [13]) it was 44.7 µM [falling, partial curve, poor fit]; in experiment [3] (setting [16]), 21.3 µM [falling, full curve]; in [3] (setting [15]), 16.9 µM [falling, full curve]. The concentration at half-maximal activity (AC50) was 29.1 µM [falling, single point] in experiment [5] (setting [17]); 25.9 µM [falling, partial curve, poor fit] in experiment [6]; 14.1 µM [falling, full curve, poor fit] in [7]; 7.08 µM [falling, partial curve, poor fit] in experiment [8]; 12.3 µM [falling, partial curve] in experiment [9] (measured here: PEO1 parental viability); 13.8 µM [falling, partial curve] in experiment [9] (measured here: PEO4 viability). Besides, the AC50 is 16.6 µM [falling, partial curve] in experiment [10] (setting [20]) and 26.4 µM [falling, single point] in experiment [10] (setting [22]). Further, the max response in [2] (setting [11]) is 9.55% and -78.5%; in experiment [2] (setting [14]), -75.1% and -89.5%. In addition, in [6], the viability change was -24.6%. For the same molecule, the z-score in [10] (setting [18]) was 0.875; in [10] (setting [19]) it was -0.313; in [10] (setting [21]), 0.14.
Turning to `NC(CCCCCP(=O)(O)O)C(=O)O` (configuration not stated), the half-maximal activity concentration (AC50) in [1] (measured here: GFP channel) was 35.5 µM [falling, single point]; in experiment [1] (measured here: RFP channel), 35.5 µM [falling, single point].
Consider `Cc1c(C(=O)c2cccc3ccccc23)c2cccc3c2n1[C@H](CN1CCOCC1)CO3`, for which the AC50 in experiment [1] (measured here: GFP channel) is 22.4 µM [falling, single point]; in experiment [1] (measured here: RFP channel) it was 22.4 µM [falling, single point]; in [3] (setting [16]), 26.9 µM [falling, full curve]; in [3] (setting [15]) it was 19 µM [falling, full curve]; in experiment [5] (setting [17]), 20.6 µM [falling, single point]; in [5] (setting [23]) it was 25.9 µM [falling, single point]. Further, the half-maximal activity concentration (AC50) in experiment [10] (setting [20]) is 20.9 µM [falling, partial curve]; in [10] (setting [22]) it was 26.4 µM [falling, single point]. In addition, the max response in [2] (setting [11]) was determined as 53.6%; in experiment [2] (setting [14]), 57%. Besides, the z-score is -0.0766 in experiment [10] (setting [18]), -0.0302 in experiment [10] (setting [19]) and -0.273 in experiment [10] (setting [21]).
On to `C[C@]12CC[C@@H](O)CC1CCC1C2CC[C@]2(C)C(=O)CC[C@@H]12` (some centres not stated), for which the half-maximal activity concentration (AC50) in experiment [1] (measured here: GFP channel) is 11.2 µM [falling, single point]; in [1] (measured here: RFP channel) it was 0.708 µM [falling, partial curve, poor fit]; in experiment [2] (setting [12]), 0.00891 µM [falling, full curve, poor fit]; in experiment [2] (setting [13]) it was 0.00891 µM [falling, full curve, poor fit]; in [3] (setting [15]), 95.3 µM [falling, single point]. The max response in [2] (setting [11]) stood at 22.8%; in experiment [2] (setting [14]), 25.2%.
For the molecule `COc1ccc(Cc2nccc3cc(OC)c(OC)cc23)cc1OC`, the half-maximal activity concentration (AC50) was 10 µM [falling, partial curve, poor fit] in experiment [1] (measured here: GFP channel); 20 µM [falling, partial curve, poor fit] in [1] (measured here: RFP channel); 12.6 µM [falling, single point] and 708 nM [rising, full curve] and 12.6 µM [falling, partial curve, poor fit] in [2] (setting [12]); 14.1 µM [falling, single point] and 631 nM [rising, full curve] and 12.6 µM [falling, partial curve, poor fit] in experiment [2] (setting [13]); 33.8 µM [falling, partial curve] in experiment [3] (setting [16]); 37.9 µM [falling, partial curve] in experiment [3] (setting [15]).
Regarding `CN[C@@H]1C[C@@H](c2ccc(Cl)c(Cl)c2)c2ccccc21`, the AC50 in [1] (measured here: GFP channel) was 15.8 µM [falling, partial curve]; in experiment [1] (measured here: RFP channel), 17.8 µM [falling, partial curve]; in [2] (setting [12]) it was 17.8 µM [falling, partial curve, poor fit]; in experiment [2] (setting [13]) it was 17.8 µM [falling, partial curve, poor fit]; in [3] (setting [16]) it was 30.1 µM [falling, full curve]; in [3] (setting [15]) it was 23.9 µM [falling, full curve]. The AC50 in experiment [5] (setting [23]) is 20.6 µM [falling, partial curve]. Besides, the max response was -37.9% in experiment [2] (setting [11]) and -37.4% in [2] (setting [14]).
As for `NC(N)=NOCCC(N)C(=O)O` (configuration not stated), the AC50 in [1] (measured here: GFP channel) is 28.2 µM [falling, partial curve]; in experiment [1] (measured here: RFP channel), 28.2 µM [falling, partial curve].

A word on the AC50: it is the midpoint of the concentration-response curve, whichever way the signal moves. For orientation: IC50 means the concentration at which inhibition is half-maximal.
